# Results: PubChem BioAssay AID504834 (National Center for Advancing Translational Sciences (NCATS), 2011)
# Out of some 320,000 compounds screened, about 22,000 (6.9%) were called active. Inconclusive results, whose numbers are uncertain, are shown with a selection of clear calls. Calls come from the whole dose curve; as a rule, active = well fitted inhibition curve with a large enough effect; inconclusive = small, poorly fitted or top-dose-only effect, or another doubt; inactive = no such curve, though single readings can be large or run the other way. A potency beside an inconclusive call is a rough fit, not a confirmed value.
# Experiment: Primary qHTS for delayed death inhibitors of the malarial parasite plastid, 96 hour incubation
# Details: P. falciparum luciferase reporter growth; series mostly up to 28.7 µM; activity change, negative = inhibition: at the top concentration
# How it was run: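 Two-generation exposure (96 h) targets delayed-death phenotype. Reporter parasites carrying integrated firefly luciferase, in red cells at 2% hematocrit and 0.05% parasitemia final, kept at 37 C, 5% CO2; luminescence loss indicates inhibition.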
# % is set by controls: 0 for no effect and ±100 for the full control effect; potency is the fitted concentration of half-maximal effect.
Structure (SMILES),Potency,"activity change, negative = inhibition"
NC(=O)CC(NC(=O)Cc1cccc2ccccc12)c1ccc(NCCN2CCCCC2)c([N+](=O)[O-])c1 (configuration not stated),"inconclusive: 10.4 µM [inhibitor, single point]",
CS(=O)(=O)N(CC(=O)N1CCCCC1)c1ccc(Cl)c(C(F)(F)F)c1,"inconclusive: 0.131 µM [inhibitor, full curve, poor fit]",
CC(C)(C)c1ccc(CN2C(=O)CSC2=O)cc1,"inconclusive: 0.329 µM [inhibitor, partial curve, poor fit]",
CC(NC(=O)c1cc(-c2ccncc2)nc2ccc(Cl)cc12)C1CCCO1 (configuration not stated),,inactive: -21.8%
Cc1cccc(NC(=S)NCc2ccco2)n1,"inconclusive: 18.5 µM [inhibitor, single point]",
N#C/C(=N\Nc1cccc(C(F)(F)F)c1)C(=O)c1ccsc1,,inactive: -3.69%
CCN(CC)C(=O)Oc1nnc(SC(C)C)n1-c1ccc(Cl)c(Cl)c1,"inconclusive: 5.22 µM [inhibitor, partial curve]",
Cc1ccc(N(CN2CCCC2=O)C(=O)c2ccc(OC(C)C)cc2)cc1,,inactive: 23.1%
CC(C)N1C(=O)S/C(=C/c2cccnc2)C1=O,"inconclusive: 2.33 µM [inhibitor, full curve, poor fit]",
CCOC(=O)[C@@H]1[C@H]2COc3ccc(Br)cc3[C@@H]2N2C(=O)N(c3ccc(Br)cc3)C(=O)[C@]12C,"inconclusive: 0.465 µM [inhibitor, full curve, poor fit]",
O=C(O)c1ccc(N/N=C/c2cn(-c3ccccc3)nc2-c2cccs2)cc1,active: 0.465 µM,
CCOC(=O)c1cnc2c(ccc3ccccc32)c1NCCO,"inconclusive: 18.5 µM [inhibitor, single point]",
CCOC(=O)c1nnn(-c2nonc2-n2cccc2)c1CN1CCC(C(=O)OCC)CC1,active: 0.928 µM,
CC(=O)Nc1ccc(S(=O)(=O)NCCc2ccc(S(N)(=O)=O)cc2)cc1,active: 10.4 µM,
CCN1C(=O)/C(=C\c2ccc([N+](=O)[O-])s2)C(=O)NC1=S,"inconclusive: 9.28 µM [inhibitor, single point]",
C=C1C(=O)O[C@H]2[C@H]1[C@@H](O)CC(=C)[C@@H]1CC(=O)[C@@H](C)[C@H]21,"inconclusive: 1.17 µM [inhibitor, full curve]",
CCCCN(CCCC)C(=O)c1ccccc1NC(=O)CN1C(=O)c2ccccc2C1=O,,inactive: 31.8%
CN(c1ccccc1)S(=O)(=O)c1cccc(C(=O)NCCCN2CCCC2=O)c1,"inconclusive: 9.28 µM [inhibitor, single point]",
CCN(CC)CCCNC(=O)C1c2ccccc2C(=O)N(CCOC)C1c1ccc(F)cc1 (configuration not stated),active: 13.1 µM,
CC(=O)Nc1nc(-c2ccc(Cl)cc2)nc(C)c1C(C)=O,"inconclusive: 18.5 µM [inhibitor, single point]",
Cc1cccc(NC(=O)CCSc2ccccn2)c1,,inactive: 116%
CCC(C)n1c(SCc2ccccc2)nc2ccsc2c1=O (configuration not stated),active: 4.15 µM,
Cc1nc2ccccc2c(=O)n1-c1ccc([N+](=O)[O-])cc1,active: 14.7 µM,
CC(O)Cc1nsc(NC(=O)c2cccs2)n1 (configuration not stated),"inconclusive: 14.7 µM [inhibitor, single point]",

Structure (SMILES),Potency,"activity change, negative = inhibition"
CCOc1ccc(N(CC(=O)Nc2ccccc2Cl)S(C)(=O)=O)cc1,"inconclusive: 2.94 µM [inhibitor, partial curve, poor fit]",
CC(=O)Oc1ccc(C(=O)Nc2cccc(C(=O)NC(C)(C)C)c2)cc1,active: 5.22 µM,
O=c1[nH]c(N2CCCCCC2)nc2ncn(Cc3ccccc3)c12,"inconclusive: 18.5 µM [inhibitor, partial curve, poor fit]",
COCCn1c(C)cc(C(=O)CSc2nnc(C3CC3)n2C2CC2)c1C,"inconclusive: 8.28 µM [inhibitor, partial curve, poor fit]",
COC(=O)CN1C(c2ccccc2)=Nc2ccc(Cl)cc2C1c1ccccc1 (configuration not stated),"inconclusive: 5.22 µM [inhibitor, partial curve, poor fit]",
CN(CCNC(=O)C1CCCN(c2ncnc3c2nc2n3CCCCC2)C1)Cc1ccccc1 (configuration not stated),"inconclusive: 2.33 µM [inhibitor, full curve]",
CCCOc1ncnc2c1[nH]c1ccccc12,,inactive: 65.2%
CCN(CC)S(=O)(=O)c1ccc(C(=O)NCCCN=C2NS(=O)(=O)c3ccccc32)cc1,active: 8.28 µM,
CCOC(=O)N1CCN(C(=O)c2cccc(N3C(=O)NC4CC3(C)Oc3ccccc34)c2)CC1 (configuration not stated),active: 1.85 µM,
Cc1cc(-c2cc(-c3ccccc3)on2)nc(NC2CCCC2)n1,"inconclusive: 10.4 µM [inhibitor, single point]",
COc1ccc2c(C)cc(SCC(=O)Nc3ccc(Cl)cn3)nc2c1,,inactive: 0.364%
N#Cc1cccc(S(=O)(=O)Nc2c(NC3CCCCC3)c3ccccc3oc2=O)c1,"inconclusive: 18.5 µM [inhibitor, single point]",
CCc1ccc(C(C(=O)NC2CCCCC2)N(C(=O)c2ccccn2)c2cccnc2)cc1 (configuration not stated),,inactive: -25.7%
COc1ccccc1CCC(=O)N(C)CC(=O)Nc1ccc(Cl)c(C(F)(F)F)c1,"inconclusive: 18.5 µM [inhibitor, single point]",
O=C(N1CCN(c2ccccc2F)CC1)C1(S(=O)(=O)c2ccc(Cl)cc2)CC1,"inconclusive: 1.04 µM [inhibitor, single point]",
O=C(Nc1ccc(OC(F)(F)F)cc1)Nc1cccc([N+](=O)[O-])c1,"inconclusive: 18.5 µM [inhibitor, single point]",
CCN(Cc1cc(=O)n2ccsc2n1)Cc1nc2cc(OC)c(OC)cc2c(=O)[nH]1,,inactive: 38%
COc1ccc([C@@H]2[C@@H]3C(=O)N(C(C)(C)C)C(=O)[C@@H]3[C@]3(Cc4ccccc4)C(=O)N(c4ccc(OC)cc4)C(=O)N23)cc1,"inconclusive: 18.5 µM [inhibitor, single point]",
COc1ccc(OC)c(N2C(=O)CC(=O)NC2=O)c1,,inactive: 19.3%
CCc1nnc(NC(=O)CCC(=O)NC2CC2)s1,,inactive: -4.39%
COc1ccc(NC(=S)Nc2cc(C)cc(C)n2)cc1OC,"inconclusive: 18.5 µM [inhibitor, single point]",
Cn1c(Nc2ccccc2)nc2ccccc21,"inconclusive: 18.5 µM [inhibitor, single point]",
Cc1cccc(Nc2nc(N)c([N+](=O)[O-])c(N3CCCC(C)C3)n2)c1 (configuration not stated),"inconclusive: 3.29 µM [inhibitor, single point]",
Fc1cccc(NC(=S)NCc2ccccc2Cl)c1,"inconclusive: 18.5 µM [inhibitor, single point]",

Structure (SMILES),Potency,"activity change, negative = inhibition"
COc1cccc(C2C(C(=O)c3cc4cccc(OC)c4o3)=C(O)C(=O)N2c2cc(C)on2)c1OC (configuration not stated),,inactive: 41.9%
COc1ccc(-c2nc(C#N)c(NCc3cccnc3)o2)cc1OC,active: 10.4 µM,
Fc1cccc(-c2csc(-c3ccno3)n2)c1,,inactive: 41.7%
CC1N(C(=O)N2CCOCC2)CCN1S(=O)(=O)c1ccc(Cl)cc1 (configuration not stated),,inactive: 7.07%
CCN(CC(=O)Nc1ccc(NC(C)=O)cc1)C(=O)/C=C/c1cn(-c2ccccc2)nc1-c1cccs1,"inconclusive: 13.1 µM [inhibitor, single point]",
Cc1cccc(C)c1NC(=O)CNC(=O)c1ccc(NS(=O)(=O)c2ccc3[nH]c(=O)[nH]c3c2)cc1,,inactive: -0.329%
NC(=O)CSc1nc2ccccc2c(=O)n1Cc1ccccc1,,inactive: 99.2%
CCN(CC(=O)Nc1c(F)cccc1F)C(=O)CSC(=S)N1CCCC1,"inconclusive: 18.5 µM [inhibitor, single point]",
Cc1ccc(NC(=O)CS(=O)CC(=O)Nc2ccccc2-c2ccc(C)o2)cc1 (configuration not stated),"inconclusive: 5.86 µM [inhibitor, partial curve]",
CCN1CCCC(OC(=O)c2cc(-c3ccccc3Cl)nc3ccccc23)C1 (configuration not stated),"inconclusive: 1.85 µM [inhibitor, partial curve, poor fit]",
O=C(NCc1ccco1)c1ccc(F)c(S(=O)(=O)N2CCCCC2)c1,"inconclusive: 4.65 µM [inhibitor, single point]",
N=C1S/C(=C\c2ccco2)C(=O)N1c1ccc2c(c1)OCO2,"inconclusive: 5.22 µM [inhibitor, partial curve]",
COC(=O)c1ccc(N2CCN(C)CC2)c(NC(=O)COc2ccc(C)cc2)c1,"inconclusive: 10.4 µM [inhibitor, partial curve]",
CCC(C)(C)NC(=O)C(c1ccc(OC)cc1)N(CCOC)C(=O)CCC(=O)Nc1nccs1 (configuration not stated),"inconclusive: 13.1 µM [inhibitor, single point]",
O=C1CSC(c2ccccc2)N1CC12CC3CC(CC(O)(C3)C1)C2 (configuration not stated),"inconclusive: 2.62 µM [inhibitor, partial curve, poor fit]",
COCCSc1nnc(NC(=O)C2CCN(C(=O)c3ccco3)CC2)s1,,inactive: -15.1%
COc1ccc(C)cc1NC(=O)CCCN1C(=O)CCC1=O,,inactive: 12.8%
CCN(CC)c1cc(C)c2cc(NC(=O)CNC(C)=O)ccc2n1,,inactive: 9.48%
O=C(COc1ccc(S(=O)(=O)NCc2ccccc2)cc1Cl)NCc1ccncc1,,inactive: -8.09%
CCc1nc2ccc(C(=O)O)cc2nc1CC,,inactive: 243%
CC(=O)c1c(C)[nH]c(C(=O)OCC(=O)Nc2ccc(Cl)c(S(=O)(=O)N(C)C)c2)c1C,active: 6.57 µM,
Nc1ccccc1Nc1ccccc1,"inconclusive: 16.5 µM [inhibitor, single point]",
CCC(C)Nc1c([N+](=O)[O-])cc(C)cc1[N+](=O)[O-] (configuration not stated),,inactive: 61.6%
Cc1ccc(CNC(=O)C2CCC(=O)N(CCc3ccccc3)C2)s1 (configuration not stated),"inconclusive: 10.4 µM [inhibitor, single point]",

# Record cards, from the list above.
# `CC1N(C(=O)N2CCOCC2)CCN1S(=O)(=O)c1ccc(Cl)cc1` (configuration not stated) is listed as activity change, negative = inhibition: inactive: 7.07%
# `NC(=O)CSc1nc2ccccc2c(=O)n1Cc1ccccc1` is listed as activity change, negative = inhibition: inactive: 99.2%
# `Nc1ccccc1Nc1ccccc1` is listed as Potency: inconclusive: 16.5 µM [inhibitor, single point]
# `COc1cccc(C2C(C(=O)c3cc4cccc(OC)c4o3)=C(O)C(=O)N2c2cc(C)on2)c1OC` (configuration not stated) is listed as activity change, negative = inhibition: inactive: 41.9%
